Measured values taken from publication PMC10984625.
No constants are given. Whether binding was seen depends on the method and setting. Binding seen in cells or lysates may run through a third protein. Here binding means that the protein was enriched with, or labelled near, the bait; the list need not be complete. Sequences can lack the tags named with a protein.

Amino acid sequences for entries named in this document (tags omitted).
UniProt Q6PD03: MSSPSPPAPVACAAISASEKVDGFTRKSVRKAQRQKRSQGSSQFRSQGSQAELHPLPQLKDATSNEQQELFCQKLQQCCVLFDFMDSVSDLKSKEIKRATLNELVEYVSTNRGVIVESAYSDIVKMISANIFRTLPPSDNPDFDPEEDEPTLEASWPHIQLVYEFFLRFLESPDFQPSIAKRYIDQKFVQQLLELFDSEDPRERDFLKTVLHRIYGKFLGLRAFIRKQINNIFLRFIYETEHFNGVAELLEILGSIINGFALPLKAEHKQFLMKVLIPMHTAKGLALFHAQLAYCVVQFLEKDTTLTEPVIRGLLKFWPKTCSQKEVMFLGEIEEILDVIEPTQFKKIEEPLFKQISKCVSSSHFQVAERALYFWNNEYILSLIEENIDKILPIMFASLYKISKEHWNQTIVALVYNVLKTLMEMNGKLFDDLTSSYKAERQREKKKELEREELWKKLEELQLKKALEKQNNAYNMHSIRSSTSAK
UniProt Q61151: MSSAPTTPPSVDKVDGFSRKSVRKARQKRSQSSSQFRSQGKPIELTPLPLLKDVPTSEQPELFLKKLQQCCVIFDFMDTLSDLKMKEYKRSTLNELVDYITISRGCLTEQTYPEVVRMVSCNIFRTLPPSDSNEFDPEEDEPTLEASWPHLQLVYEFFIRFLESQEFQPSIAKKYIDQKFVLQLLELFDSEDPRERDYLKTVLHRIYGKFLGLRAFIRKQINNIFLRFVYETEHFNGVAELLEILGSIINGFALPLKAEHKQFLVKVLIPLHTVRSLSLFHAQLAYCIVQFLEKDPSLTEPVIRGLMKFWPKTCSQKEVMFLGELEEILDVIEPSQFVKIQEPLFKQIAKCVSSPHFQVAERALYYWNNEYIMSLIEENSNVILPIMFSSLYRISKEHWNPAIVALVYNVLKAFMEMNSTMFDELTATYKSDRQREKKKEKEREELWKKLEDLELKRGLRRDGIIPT

T1: reticulon 3 (RTN3) (mouse (endogenous in hippocampus of 3xTg-AD mice)) (UniProt Q9ES97)
T1 sequence: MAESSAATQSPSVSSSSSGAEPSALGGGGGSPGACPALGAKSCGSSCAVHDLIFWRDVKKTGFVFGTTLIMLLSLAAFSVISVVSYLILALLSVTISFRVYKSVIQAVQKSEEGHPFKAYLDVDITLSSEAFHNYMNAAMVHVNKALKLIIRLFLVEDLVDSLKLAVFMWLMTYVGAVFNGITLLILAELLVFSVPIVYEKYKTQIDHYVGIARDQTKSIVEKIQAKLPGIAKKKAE

B1: PPP2R2C (protein, UniProt Q8BG02 1-447)
chain: MGEDTDTRKINHSFLRDHSYVTEADVISTVEFNHTGELLATGDKGGRVVIFQREPESKNAPHSQGEYDVYSTFQSHEPEFDYLKSLEIEEKINKIKWLPQQNAAHSLLSTNDKTIKLWKITERDKRPEGYNLKDEEGKLKDLSTVTSLQVPVLKPMDLMVEVSPRRTFANGHTYHINSISVNSDCETYMSADDLRINLWHLAITDRSFNIVDIKPANMEDLTEVITASEFHPHHCNLFVYSSSKGSLRLCDMRAAALCDKHSKLFEEPEDPSNRSFFSEIISSVSDVKFSHSGRYMLTRDYLTVKVWDLNMEARPIETYQVHDYLRSKLCSLYESDCIFDKFECAWNGSDSVIMTGAYNNFFRMFDRNTKRDVTLEASRESSKPRAVLKPRRVCVGGKRRRDDISVDSLDFTKKILHTAWHPAENIIAIAATNNLYIFQDKVNSDMH

biological target: T1, reticulon 3 (RTN3) (mouse (endogenous in hippocampus of 3xTg-AD mice)); assay: affinity purification with mass spectrometry; homogenates of the stratum lucidum of the CA3 region of isolated and group-housed AD mice immunoprecipitated with an antibody against RTN3; three darker Coomassie-stained bands of isolated AD mice cut out for mass spectrometry; proteins with fold change >1.5 against group-housed AD mice

binding, binds:
PPP2R5A (from UniProt Q6PD03 1-486), PPP2R5E (from UniProt Q61151 1-467), B1
